Taken from: PubChem BioAssay AID652243 (Drosophila RNAi Screening Center, 2013)
Purpose: 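Knock-downs that decrease or increase androgen receptor reporter signal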 (primary screen). System: Drosophila S2R+ cells. Reagents: long dsRNA against Drosophila genes. Duration: 72 h (48 h, then 24 h hormone). Treatment: synthetic androgen R1881 at 10 nM for 24 h. Measurement: 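Per-well raw luminescence of the androgen-driven firefly reporter and of the Renilla control, two replicates each, without normalisation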. Reading the numbers: firefly reporter light: higher = more light from androgen-responsive reporter; Renilla control light: higher = more constitutive control signal (cell number, transfection). Rule for the call: 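Across duplicate plates, a knock-down whose log firefly/Renilla ratio shifted a set fold down or up from the GFP/LacZ control mean was a hit; the downward cut appears as both 1.5 and 3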. Calls: active = hit: reporter lowered or raised; inactive = no hit.
The screen tested about 24,000 reagents; this is an unselected part of those with a known target gene and a result. Of all reagents, 246 (1%) were called active. 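Plates not normalised; calls are printed but the firefly/Renilla ratio behind them is not deposited; fold cut for lowering reported inconsistently.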 Raw values vary from plate to plate and are shown uncorrected. Unmarked entries are inactive. Not stated in the record: the amount of reagent.

CG34459 [DRSC06973] showed firefly reporter light, replicate 1 = 79061; firefly reporter light, replicate 2 = 89859; Renilla control light, replicate 1 = 1.64e6; Renilla control light, replicate 2 = 1.64e6.
eEF1alpha2 (eukaryotic translation elongation factor 1 alpha 2) [DRSC14079] showed firefly reporter light, replicate 1 = 1.21e6; firefly reporter light, replicate 2 = 8.44e5; Renilla control light, replicate 1 = 1.15e6; Renilla control light, replicate 2 = 7.24e5.
Against eEF1alpha2 (eukaryotic translation elongation factor 1 alpha 2) [DRSC16658], the entry reads firefly reporter light, replicate 1 = 1.18e5; firefly reporter light, replicate 2 = 1.60e5; Renilla control light, replicate 1 = 1.72e6; Renilla control light, replicate 2 = 1.65e6.
ppk10 (pickpocket 10) [DRSC38920] showed firefly reporter light, replicate 1 = 8.19e5; firefly reporter light, replicate 2 = 8.48e5; Renilla control light, replicate 1 = 1.40e6; Renilla control light, replicate 2 = 1.55e6.
With knock-down of CG5399 [DRSC15791] the results were firefly reporter light, replicate 1 = 93809; firefly reporter light, replicate 2 = 1.24e5; Renilla control light, replicate 1 = 1.54e6; Renilla control light, replicate 2 = 2.27e6.
CG5399 [DRSC25357] showed firefly reporter light, replicate 1 = 5.96e5; firefly reporter light, replicate 2 = 5.19e5; Renilla control light, replicate 1 = 8.63e5; Renilla control light, replicate 2 = 9.33e5.
CG32119 [DRSC09248] scored firefly reporter light, replicate 1 = 2.83e5; firefly reporter light, replicate 2 = 2.54e5; Renilla control light, replicate 1 = 2.69e6; Renilla control light, replicate 2 = 2.82e6.
Against CG32119 [DRSC21462], the values are firefly reporter light, replicate 1 = 7.26e5; firefly reporter light, replicate 2 = 6.79e5; Renilla control light, replicate 1 = 2.02e6; Renilla control light, replicate 2 = 1.66e6.
For CG32119 [DRSC29122] the deposit lists firefly reporter light, replicate 1 = 5.56e5; firefly reporter light, replicate 2 = 5.55e5; Renilla control light, replicate 1 = 1.41e6; Renilla control light, replicate 2 = 1.10e6.
With knock-down of CG17764 [DRSC23055], the record shows firefly reporter light, replicate 1 = 7.55e5; firefly reporter light, replicate 2 = 8.03e5; Renilla control light, replicate 1 = 1.40e6; Renilla control light, replicate 2 = 1.55e6.
For CG5776 [DRSC02891], the entry reads firefly reporter light, replicate 1 = 9.59e5; firefly reporter light, replicate 2 = 8.34e5; Renilla control light, replicate 1 = 1.54e6; Renilla control light, replicate 2 = 1.95e6.
Silencing of CG14540 [DRSC14884] resulted in: firefly reporter light, replicate 1 = 1.15e5; firefly reporter light, replicate 2 = 1.35e5; Renilla control light, replicate 1 = 1.76e6; Renilla control light, replicate 2 = 2.24e6.
Against CG14540 [DRSC25080], the entry reads firefly reporter light, replicate 1 = 8.27e5; firefly reporter light, replicate 2 = 1.17e6; Renilla control light, replicate 1 = 9.54e5; Renilla control light, replicate 2 = 9.03e5.
Depletion of CG14540 [DRSC39076] resulted in: firefly reporter light, replicate 1 = 1.06e6; firefly reporter light, replicate 2 = 8.51e5; Renilla control light, replicate 1 = 2.10e6; Renilla control light, replicate 2 = 1.62e6.

Only “firefly reporter light, replicate 2” (2 entries from above):
ppk10 (pickpocket 10) [DRSC38920] = 8.48e5
CG5399 [DRSC15791] = 1.24e5
